Assay [1] addresses RAB5 (human (endogenous in HEK293)). The assay is described as follows: co-IP; HEK293 cells with or without ANXA6 knockdown, transfected with pcDNA3.1-ATG9A, starved with EBSS; lysates in IP buffer incubated with RAB5 or RAB11 antibodies overnight at 4°C; immunoblotting. A general note: Immunoblotting shows a protein as a band on a membrane.
The target in assay [2] is RAB11 (human (endogenous in HEK293)). Described as above.

Our source for the binding values is article PMC7571625.

Results are given in words; binding and its absence hold for the method and conditions named. Binding seen in cells or lysates may run through a third protein. Binding calls can cover weak binding; strength is not graded here.

B1: ATG9A (autophagy-related 9A), from pcDNA3.1-ATG9A (protein, UniProt Q7Z3C6 1-839)
chain: MAQFDTEYQRLEASYSDSPPGEEDLLVHVAEGSKSPWHHIENLDLFFSRVYNLHQKNGFTCMLIGEIFELMQFLFVVAFTTFLVSCVDYDILFANKMVNHSLHPTEPVKVTLPDAFLPAQVCSARIQENGSLITILVIAGVFWIHRLIKFIYNICCYWEIHSFYLHALRIPMSALPYCTWQEVQARIVQTQKEHQICIHKRELTELDIYHRILRFQNYMVALVNKSLLPLRFRLPGLGEAVFFTRGLKYNFELILFWGPGSLFLNEWSLKAEYKRGGQRLELAQRLSNRILWIGIANFLLCPLILIWQILYAFFSYAEVLKREPGALGARCWSLYGRCYLRHFNELEHELQSRLNRGYKPASKYMNCFLSPLLTLLAKNGAFFAGSILAVLIALTIYDEDVLAVEHVLTTVTLLGVTVTVCRSFIPDQHMVFCPEQLLRVILAHIHYMPDHWQGNAHRSQTRDEFAQLFQYKAVFILEELLSPIVTPLILIFCLRPRALEIIDFFRNFTVEVVGVGDTCSFAQMDVRQHGHPQWLSAGQTEASVYQQAEDGKTELSLMHFAITNPGWQPPRESTAFLGFLKEQVQRDGAAASLAQGGLLPENALFTSIQSLQSESEPLSLIANVVAGSSCRGPPLPRDLQGSRHRAEVASALRSFSPLQPGQAPTGRAHSTMTGSGVDARTASSGSSVWEGQLQSLVLSEYASTEMSLHALYMHQLHKQQAQAEPERHVWHRRESDESGESAPDEGGEGARAPQSIPRSASYPCAAPRPGAPETTALHGGFQRRYGGITDPGTVPRVPSHFSRLPLGGWAEDGQSASRHPEPVPEEGSEDELPPQVHKV
Take B1: the binding result in assay [1] and in assay [2] was “binds” in each case.
